Experimental data taken from paper PMC11324303.
These are yes or no findings as the source states them, for the method shown. In cells and extracts the contact can be indirect. Here binding means that the protein was enriched with, or labelled near, the bait; the list need not be complete.

By UniProt entry, the sequences of proteins in these tests, tags left out. Residues count along the entry.
UniProt O14786, residues 22-923: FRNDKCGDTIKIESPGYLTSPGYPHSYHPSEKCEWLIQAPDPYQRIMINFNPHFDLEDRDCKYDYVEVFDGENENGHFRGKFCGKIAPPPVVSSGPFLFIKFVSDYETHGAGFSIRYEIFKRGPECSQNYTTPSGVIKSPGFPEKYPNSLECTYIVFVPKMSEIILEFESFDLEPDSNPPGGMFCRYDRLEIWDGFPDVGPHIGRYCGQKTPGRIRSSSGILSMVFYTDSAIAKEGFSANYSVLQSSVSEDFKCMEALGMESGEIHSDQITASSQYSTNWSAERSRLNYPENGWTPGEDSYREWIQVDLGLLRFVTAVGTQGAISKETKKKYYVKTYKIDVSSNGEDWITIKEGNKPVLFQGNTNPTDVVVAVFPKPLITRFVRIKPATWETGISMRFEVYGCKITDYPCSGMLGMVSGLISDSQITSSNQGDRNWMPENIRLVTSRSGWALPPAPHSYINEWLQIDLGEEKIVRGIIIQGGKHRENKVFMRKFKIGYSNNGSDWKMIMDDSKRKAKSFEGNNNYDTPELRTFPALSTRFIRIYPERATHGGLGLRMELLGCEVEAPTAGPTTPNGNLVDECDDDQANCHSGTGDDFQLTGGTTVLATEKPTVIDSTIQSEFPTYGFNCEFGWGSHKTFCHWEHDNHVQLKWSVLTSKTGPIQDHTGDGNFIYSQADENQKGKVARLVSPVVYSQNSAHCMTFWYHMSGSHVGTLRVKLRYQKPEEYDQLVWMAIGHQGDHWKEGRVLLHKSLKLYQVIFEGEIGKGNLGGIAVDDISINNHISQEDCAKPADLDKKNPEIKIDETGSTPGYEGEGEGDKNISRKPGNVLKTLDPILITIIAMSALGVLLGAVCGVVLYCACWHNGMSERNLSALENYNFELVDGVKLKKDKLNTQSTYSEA

Target: T1, SLC44A2 (human (endogenous in HASMCs)) (UniProt Q8IWA5)
T1 sequence: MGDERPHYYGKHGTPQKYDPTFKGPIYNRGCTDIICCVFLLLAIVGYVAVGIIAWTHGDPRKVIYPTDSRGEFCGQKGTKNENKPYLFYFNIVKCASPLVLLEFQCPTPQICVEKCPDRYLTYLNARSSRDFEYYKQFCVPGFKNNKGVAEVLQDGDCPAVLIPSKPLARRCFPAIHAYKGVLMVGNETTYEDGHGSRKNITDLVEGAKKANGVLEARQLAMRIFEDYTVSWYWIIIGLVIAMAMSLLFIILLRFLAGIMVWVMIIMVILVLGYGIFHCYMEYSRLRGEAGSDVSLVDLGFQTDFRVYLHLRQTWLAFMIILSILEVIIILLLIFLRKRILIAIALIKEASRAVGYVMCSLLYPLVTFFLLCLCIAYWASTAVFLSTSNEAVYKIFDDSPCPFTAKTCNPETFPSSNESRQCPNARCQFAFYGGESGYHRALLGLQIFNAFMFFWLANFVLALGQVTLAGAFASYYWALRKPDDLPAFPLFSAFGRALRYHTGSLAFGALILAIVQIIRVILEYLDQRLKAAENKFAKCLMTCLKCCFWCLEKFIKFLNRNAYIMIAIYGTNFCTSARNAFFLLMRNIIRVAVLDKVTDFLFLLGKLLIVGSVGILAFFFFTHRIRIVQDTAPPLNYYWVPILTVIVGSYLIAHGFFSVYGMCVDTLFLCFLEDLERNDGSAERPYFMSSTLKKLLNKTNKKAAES
Experiment: affinity purification with mass spectrometry; HASMC lysates immunoprecipitated with anti-SLC44A2 antibody, then mass spectrometry

binding: binds
Substance: neuropilin-1 (NRP1) (from UniProt O14786 22-923) (receptor)
